No constants are given. Whether binding was seen depends on the method and setting. Binding seen in cells or lysates may run through a third protein. These calls come from enrichment with a bait or labelling near it, and not all partners need be listed. Tags and fused reporters may be left off the sequences shown.

Amino acid sequences for entries named in this document (tags omitted).
UniProt Q03135: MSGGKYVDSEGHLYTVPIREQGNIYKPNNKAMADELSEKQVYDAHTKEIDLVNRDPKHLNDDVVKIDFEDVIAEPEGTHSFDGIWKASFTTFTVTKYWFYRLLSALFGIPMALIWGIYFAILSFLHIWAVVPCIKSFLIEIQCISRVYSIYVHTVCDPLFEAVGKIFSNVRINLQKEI
UniProt P46940: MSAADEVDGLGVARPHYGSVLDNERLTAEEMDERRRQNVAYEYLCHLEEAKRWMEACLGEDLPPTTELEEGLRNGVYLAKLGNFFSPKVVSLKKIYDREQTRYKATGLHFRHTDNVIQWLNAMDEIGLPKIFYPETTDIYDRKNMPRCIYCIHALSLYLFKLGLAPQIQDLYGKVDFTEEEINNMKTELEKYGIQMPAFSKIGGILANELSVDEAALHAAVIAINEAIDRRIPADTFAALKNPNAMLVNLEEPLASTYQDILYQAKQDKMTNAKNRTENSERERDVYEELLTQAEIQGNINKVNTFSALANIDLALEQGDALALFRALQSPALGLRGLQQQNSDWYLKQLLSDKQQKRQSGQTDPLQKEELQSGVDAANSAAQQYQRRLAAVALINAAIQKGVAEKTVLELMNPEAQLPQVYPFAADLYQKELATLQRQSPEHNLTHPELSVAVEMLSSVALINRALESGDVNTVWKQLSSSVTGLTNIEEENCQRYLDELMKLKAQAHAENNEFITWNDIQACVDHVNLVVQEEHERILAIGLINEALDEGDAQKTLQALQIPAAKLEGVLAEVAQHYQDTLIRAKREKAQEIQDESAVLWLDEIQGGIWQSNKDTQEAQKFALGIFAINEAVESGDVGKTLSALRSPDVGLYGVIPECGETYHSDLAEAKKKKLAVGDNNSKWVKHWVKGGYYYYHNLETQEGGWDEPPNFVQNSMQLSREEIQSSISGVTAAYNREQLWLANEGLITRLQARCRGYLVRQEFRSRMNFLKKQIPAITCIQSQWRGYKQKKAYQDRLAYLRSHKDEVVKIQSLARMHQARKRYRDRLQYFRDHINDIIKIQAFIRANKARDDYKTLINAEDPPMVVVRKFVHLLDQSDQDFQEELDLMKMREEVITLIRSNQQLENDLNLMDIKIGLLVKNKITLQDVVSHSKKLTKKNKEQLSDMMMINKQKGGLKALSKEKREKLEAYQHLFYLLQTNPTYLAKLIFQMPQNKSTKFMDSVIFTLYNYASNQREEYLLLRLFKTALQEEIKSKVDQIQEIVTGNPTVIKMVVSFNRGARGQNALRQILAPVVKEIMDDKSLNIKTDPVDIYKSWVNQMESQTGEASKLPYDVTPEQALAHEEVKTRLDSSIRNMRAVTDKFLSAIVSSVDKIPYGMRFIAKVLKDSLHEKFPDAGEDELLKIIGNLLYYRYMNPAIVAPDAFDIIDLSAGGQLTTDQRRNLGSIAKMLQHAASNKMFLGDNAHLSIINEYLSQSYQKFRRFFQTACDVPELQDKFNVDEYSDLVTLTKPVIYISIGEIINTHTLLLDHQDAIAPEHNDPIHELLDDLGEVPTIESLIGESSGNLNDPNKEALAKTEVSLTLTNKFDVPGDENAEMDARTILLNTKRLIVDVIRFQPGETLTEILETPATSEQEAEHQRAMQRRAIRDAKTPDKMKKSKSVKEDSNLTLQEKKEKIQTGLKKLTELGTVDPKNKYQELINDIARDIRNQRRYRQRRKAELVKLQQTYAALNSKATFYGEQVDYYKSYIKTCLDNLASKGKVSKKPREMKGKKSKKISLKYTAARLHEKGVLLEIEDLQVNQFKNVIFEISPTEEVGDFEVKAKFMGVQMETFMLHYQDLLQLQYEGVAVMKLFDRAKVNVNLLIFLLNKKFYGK

T1: cytoskeletal associated protein Palladin (PALLD) (human (endogenous in the paper's human pancreatic cell lines; line not stated for this experiment)) (UniProt Q8WX93)
T1 sequence: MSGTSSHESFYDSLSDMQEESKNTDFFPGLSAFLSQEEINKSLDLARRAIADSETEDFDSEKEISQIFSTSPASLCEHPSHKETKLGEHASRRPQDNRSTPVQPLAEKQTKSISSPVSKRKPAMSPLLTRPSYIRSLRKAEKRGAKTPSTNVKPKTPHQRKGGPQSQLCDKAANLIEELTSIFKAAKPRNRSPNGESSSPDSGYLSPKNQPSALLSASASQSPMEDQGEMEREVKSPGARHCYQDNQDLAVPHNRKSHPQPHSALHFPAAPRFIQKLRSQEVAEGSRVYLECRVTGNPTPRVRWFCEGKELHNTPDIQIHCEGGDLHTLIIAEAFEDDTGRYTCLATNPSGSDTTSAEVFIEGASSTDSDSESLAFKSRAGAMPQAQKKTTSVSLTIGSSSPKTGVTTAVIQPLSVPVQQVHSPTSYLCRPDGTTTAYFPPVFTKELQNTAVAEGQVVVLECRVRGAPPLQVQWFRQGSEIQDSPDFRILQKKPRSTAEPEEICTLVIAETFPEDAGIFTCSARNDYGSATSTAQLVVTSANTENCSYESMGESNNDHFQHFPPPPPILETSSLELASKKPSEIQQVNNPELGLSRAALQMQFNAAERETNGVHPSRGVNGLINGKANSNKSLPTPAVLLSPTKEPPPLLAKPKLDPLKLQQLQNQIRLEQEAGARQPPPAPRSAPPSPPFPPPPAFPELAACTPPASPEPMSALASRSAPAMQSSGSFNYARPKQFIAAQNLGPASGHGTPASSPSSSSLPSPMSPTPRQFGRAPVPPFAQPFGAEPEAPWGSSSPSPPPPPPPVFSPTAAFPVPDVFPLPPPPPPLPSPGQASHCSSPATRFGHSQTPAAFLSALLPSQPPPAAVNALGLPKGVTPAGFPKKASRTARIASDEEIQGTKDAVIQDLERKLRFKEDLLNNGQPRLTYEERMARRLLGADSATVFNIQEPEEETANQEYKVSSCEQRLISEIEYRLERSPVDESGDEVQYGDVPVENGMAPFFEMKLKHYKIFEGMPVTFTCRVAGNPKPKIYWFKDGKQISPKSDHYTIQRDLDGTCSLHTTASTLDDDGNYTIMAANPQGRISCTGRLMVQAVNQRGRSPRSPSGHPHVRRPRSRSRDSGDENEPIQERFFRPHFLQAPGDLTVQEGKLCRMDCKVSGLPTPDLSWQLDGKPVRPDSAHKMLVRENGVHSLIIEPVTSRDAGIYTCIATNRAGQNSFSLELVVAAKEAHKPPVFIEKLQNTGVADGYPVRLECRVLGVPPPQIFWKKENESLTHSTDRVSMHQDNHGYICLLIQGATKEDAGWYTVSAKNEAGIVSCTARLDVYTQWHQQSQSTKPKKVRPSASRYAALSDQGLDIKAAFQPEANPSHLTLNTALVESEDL

B1: TMEM43 (protein, UniProt Q9BTV4 1-400)
chain: MAANYSSTSTRREHVKVKTSSQPGFLERLSETSGGMFVGLMAFLLSFYLIFTNEGRALKTATSLAEGLSLVVSPDSIHSVAPENEGRLVHIIGALRTSKLLSDPNYGVHLPAVKLRRHVEMYQWVETEESREYTEDGQVKKETRYSYNTEWRSEIINSKNFDREIGHKNPSAMAVESFMATAPFVQIGRFFLSSGLIDKVDNFKSLSLSKLEDPHVDIIRRGDFFYHSENPKYPEVGDLRVSFSYAGLSGDDPDLGPAHVVTVIARQRGDQLVPFSTKSGDTLLLLHHGDFSAEEVFHRELRSNSMKTWGLRAAGWMAMFMGLNLMTRILYTLVDWFPVFRDLVNIGLKAFAFCVATSLTLLTVAAGWLFYRPLWALLIAGLALVPILVARTRVPAKKLE

The target of the test is T1, cytoskeletal associated protein Palladin (PALLD) (human (endogenous in the paper's human pancreatic cell lines; line not stated for this experiment)). The experiment in a line: affinity purification with mass spectrometry; cell lysate incubated with anti-PALLD antibody or rabbit IgG (2 h, 4 °C), then overnight at 4 °C with 2% BSA and protein A-Sepharose beads; eluate on SDS-PAGE, trypsin digest, LC-MS/MS.
Consider CAV1 (from UniProt Q03135 1-178), for which the binding result is reported as “binds”.
As to “IQ motif containing GTPase-activating protein 1 (IQGAP1) (from UniProt P46940 1-1657)”, the binding result was “binds”.
Consider B1, for which the binding entry was “binds”.

Source of the values: PMC12412546.
